In this assay the target is human CD22 (human) (UniProt P20273). Briefly: flow cytometry, direct immunofluorescence on normal human PBMC. In general terms: Flow cytometry measures light scatter and fluorescence of single cells or particles in a stream.

Chains of the proteins cited; added tags and fusions are not shown. Residues count along the entry.
UniProt P20273, residues 20-847: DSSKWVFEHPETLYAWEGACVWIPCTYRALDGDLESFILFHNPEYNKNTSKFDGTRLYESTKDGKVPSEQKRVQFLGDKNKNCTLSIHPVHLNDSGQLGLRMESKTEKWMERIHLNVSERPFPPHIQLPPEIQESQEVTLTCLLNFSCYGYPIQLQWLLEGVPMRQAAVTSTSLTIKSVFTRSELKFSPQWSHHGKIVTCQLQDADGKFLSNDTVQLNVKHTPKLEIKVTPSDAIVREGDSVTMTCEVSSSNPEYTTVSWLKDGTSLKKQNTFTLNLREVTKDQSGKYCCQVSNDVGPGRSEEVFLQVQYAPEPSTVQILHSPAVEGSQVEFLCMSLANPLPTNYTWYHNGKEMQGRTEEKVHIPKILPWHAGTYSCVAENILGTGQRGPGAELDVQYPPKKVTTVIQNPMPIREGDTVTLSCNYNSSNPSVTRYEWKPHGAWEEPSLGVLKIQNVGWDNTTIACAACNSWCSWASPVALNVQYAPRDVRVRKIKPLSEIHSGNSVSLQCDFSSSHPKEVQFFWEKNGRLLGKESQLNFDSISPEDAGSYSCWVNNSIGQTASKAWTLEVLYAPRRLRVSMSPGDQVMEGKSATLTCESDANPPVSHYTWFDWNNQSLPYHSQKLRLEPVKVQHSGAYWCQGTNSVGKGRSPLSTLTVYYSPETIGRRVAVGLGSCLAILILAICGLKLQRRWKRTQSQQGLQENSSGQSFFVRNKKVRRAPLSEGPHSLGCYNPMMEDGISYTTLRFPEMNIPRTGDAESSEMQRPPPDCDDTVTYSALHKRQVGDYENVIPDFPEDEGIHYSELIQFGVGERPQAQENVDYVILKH

These are yes or no findings as the source states them, for the method shown. Some results given as binding are weak or reduced against the parent protein; the word gives no strength.

The text below walks through data of patent publication US20170137513A1.

B1: RFB4 monoclonal antibody (antibody, V domains shown)
VH: EVQLVESGGGLVKPGGSLKLSCAASGFAFSIYDMSWVRQTPEKRLEWVAYISSGGGTTYYPDTVKGRFTISRDNAKNTLYLQMSSLKSEDTAMYYCARHSGYGSSYGVLFAYWGQGTLVTVSA
VL: DIQMTQTTSSLSASLGDRVTISCRASQDISNYLNWYQQKPDGTVKLLIYYTSILHSGVPSRFSGSGSGTDYSLTISNLEQEDFATYFCQQGNTLPWTFGGGTKLEIK
For the molecule B1, the binding entry is recorded as “binds”.
